In publication PMC12159506:

Target: T1, SmBiT-C-CaSR-AA (CASR LL1013-1014AA mutation), P41180
T1 chain: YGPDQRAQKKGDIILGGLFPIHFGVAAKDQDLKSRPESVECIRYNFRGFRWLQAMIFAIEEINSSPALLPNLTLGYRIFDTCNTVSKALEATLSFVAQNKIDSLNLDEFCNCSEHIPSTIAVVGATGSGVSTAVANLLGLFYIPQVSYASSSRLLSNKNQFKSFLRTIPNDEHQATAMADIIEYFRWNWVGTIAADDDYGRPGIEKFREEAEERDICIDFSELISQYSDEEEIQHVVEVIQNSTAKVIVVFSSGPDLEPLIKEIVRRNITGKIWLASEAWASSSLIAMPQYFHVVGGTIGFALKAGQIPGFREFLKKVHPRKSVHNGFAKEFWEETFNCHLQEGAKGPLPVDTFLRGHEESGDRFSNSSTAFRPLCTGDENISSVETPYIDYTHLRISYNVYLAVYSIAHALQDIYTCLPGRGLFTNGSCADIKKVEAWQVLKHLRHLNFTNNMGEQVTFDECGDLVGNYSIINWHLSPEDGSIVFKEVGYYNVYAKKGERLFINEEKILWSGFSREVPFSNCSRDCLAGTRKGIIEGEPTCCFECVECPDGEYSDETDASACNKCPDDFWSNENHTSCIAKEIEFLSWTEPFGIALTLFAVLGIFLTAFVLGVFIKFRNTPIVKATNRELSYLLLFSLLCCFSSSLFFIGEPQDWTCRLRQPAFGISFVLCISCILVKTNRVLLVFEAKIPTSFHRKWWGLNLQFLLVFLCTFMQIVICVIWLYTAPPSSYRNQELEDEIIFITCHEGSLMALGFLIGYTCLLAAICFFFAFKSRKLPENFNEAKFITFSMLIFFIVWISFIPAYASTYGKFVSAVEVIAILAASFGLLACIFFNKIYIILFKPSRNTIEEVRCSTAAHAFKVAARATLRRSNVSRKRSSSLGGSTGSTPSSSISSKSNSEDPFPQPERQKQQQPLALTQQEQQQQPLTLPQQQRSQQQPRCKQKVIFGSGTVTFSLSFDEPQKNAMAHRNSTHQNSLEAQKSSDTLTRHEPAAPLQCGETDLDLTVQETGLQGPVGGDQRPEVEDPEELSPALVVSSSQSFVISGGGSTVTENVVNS
Test: NanoBiT split-luciferase
Conditions: chain shown with the change; N = 6; parent: est. 6.0; read off a plot

response: 3.8
B1: m3; m1 AP2σ:R15H; CaSR:L1013A; CaSR:L1014A (protein)
chain: MIRFILIQNRAGKTHLAKWYMQFDDDEKQKLIEEVHAVVTVRDAKHTNFVEFRNFKIIYRRYAGLYFCICVDVNDNNLAYLEAIHNFVEVLNEYFHNVCELDLVFNFYKVYTVVDEMFLAGEIRETSQTKVLKQLLMLQSLE
